# PubChem BioAssay AID504795 – Drosophila RNAi Screening Center | 2011
# Screen: 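Fly genes whose loss alters neurite growth or neural cell form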 (primary screen)
# Cells: primary Drosophila neurons and glia
# Reagent: long dsRNA against Drosophila genes, 250 ng dsRNA per well
# Timing: one week
# Measurement: 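GFP-labelled neurons and glia imaged live by automated microscope one week after 250 ng dsRNA per well; morphology scored by eye as descriptive phenotype terms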
# This is not the whole library: the list holds selected reagents. 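Every listed dsRNA shows some phenotype; how reagents were selected for listing is not stated.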 Names joined by + are all predicted targets of the reagent. No sequences are given here.
The opening 5 entries, ahead of the listing:
target,dsRNA,"phenotype seen, replicate 1","phenotype seen, replicate 2"
CG12209 (GeneID 36077),DRSC06119,too many neurite branches,
rad (retired record) (GeneID 32251),DRSC22865,axon bundles split apart,
CG32100 (GeneID 39400),DRSC09725,reduced axon outgrowth,
Arp3 (GeneID 38898),DRSC09669,axon bundles split apart,
CG10194 (GeneID 35231),DRSC02025,axon bundles split apart,

The listing, from the first entry:
target,dsRNA,"phenotype seen, replicate 1","phenotype seen, replicate 2"
CG12209 (GeneID 36077),DRSC06119,too many neurite branches,
rad (retired record) (GeneID 32251),DRSC22865,axon bundles split apart,
CG32100 (GeneID 39400),DRSC09725,reduced axon outgrowth,
Arp3 (GeneID 38898),DRSC09669,axon bundles split apart,
CG10194 (GeneID 35231),DRSC02025,axon bundles split apart,
mtDNA-helicase (GeneID 34307),DRSC02912,too many neurite branches,
CG4363 (GeneID 37488),DRSC04465,axon bundles split apart,
Sxl + CG14425 (retired record),DRSC21490,reduced axon outgrowth,
Tailor (GeneID 40847),DRSC12526,sheet-like cell extensions,
RpS15Ab + RpS15Aa,DRSC06129,beaded; swollen axons,
RpS15Ab + RpS15Aa,DRSC19831,too many neurite branches,
Lsm11 (GeneID 36013),DRSC06238,fewer cells,
cg (GeneID 36571),DRSC07650,reduced axon outgrowth,
CG9686 (GeneID 31921),DRSC18439,too many neurite branches,
Takl2 (GeneID 42692),DRSC15650,abnormal cell clusters,
CG34409 (GeneID 5740854),DRSC14577,axon bundles split apart,
CG34409 (GeneID 5740854),DRSC21667,reduced axon outgrowth,
Tb (GeneID 43212),DRSC15815,too many neurite branches,
CG6280 (GeneID 36522),DRSC06972,fewer cells,
rumi (GeneID 326122),DRSC15177,too many neurite branches,
Scp2 (GeneID 42015),DRSC16854,sheet-like cell extensions,
org-1 (GeneID 31778),DRSC18810,abnormal cell clusters,
Cad96Cb (GeneID 43033),DRSC14243,too many neurite branches,
His3:CG33818 + His3:CG33815 + His3:CG33857 + 20 more,DRSC21267,axon bundles split apart,
TM9SF4 (GeneID 34778),DRSC02537,too many neurite branches,
RpS14a (GeneID 47218),DRSC18710,axon bundles split apart,
brwl (GeneID 34275),DRSC01080,abnormal cell clusters,
brwl (GeneID 34275),DRSC02729,sheet-like cell extensions,
Pfdn2 (GeneID 46121),DRSC10618,axon bundles split apart,
Ost48 (GeneID 31849),DRSC18693,too many neurite branches,
sli (GeneID 36746),DRSC07684,too many neurite branches,
Agpat2 (GeneID 34176),DRSC03532,axon bundles split apart,
CG5880 (GeneID 43268),DRSC15906,too many neurite branches,
CG6951 (GeneID 40222),DRSC10755,too many neurite branches,
Cpr30B (GeneID 34270),DRSC02728,too many neurite branches,
AttB (GeneID 36637),DRSC06734,axon bundles split apart,
CG8051 (GeneID 32925),DRSC20077,fewer cells,
Mst57Db (GeneID 43122),DRSC21551,sheet-like cell extensions,
Or45b (GeneID 35980),DRSC07488,axon bundles split apart,
Hsepi (GeneID 35569),DRSC04986,reduced axon outgrowth,
CG1394 (GeneID 32059),DRSC19539,too many neurite branches,
CG4768 (GeneID 32666),DRSC19917,axon bundles split apart,
Sfp53D (GeneID 8673983),DRSC05625,axon bundles split apart,
smal (GeneID 5740323),DRSC02318,too many neurite branches,
alphaTub84B (GeneID 40848),DRSC12622,axon bundles split apart,reduced axon outgrowth
CG8300 (GeneID 31658),DRSC18426,axon bundles split apart,
Muc4B (GeneID 31368),DRSC18063,reduced axon outgrowth,
eIF2beta (GeneID 39433),DRSC11341,beaded; swollen axons,
sala (GeneID 34570),DRSC03605,axon bundles split apart,
TSG101 (GeneID 39881),DRSC11098,sheet-like cell extensions,
5-HT1B (GeneID 37191),DRSC05769,too many neurite branches,
CG11811 (GeneID 39213),DRSC09862,axon bundles split apart,
Paip2 (GeneID 41591),DRSC14504,too many neurite branches,
CG6013 (GeneID 42286),DRSC15947,reduced axon outgrowth,
CG15143 (GeneID 35062),DRSC02444,cell fragments present,
Nckx30C (GeneID 45248),DRSC02689,axon bundles split apart,
cactin (GeneID 33043),DRSC20576,abnormal cell clusters,
CG15756 (GeneID 32308),DRSC19721,too many neurite branches,
skd (GeneID 43906),DRSC11898,abnormal cell clusters,axon bundles split apart
Tif-IA (GeneID 35454),DRSC03726,axon bundles split apart,
Dph5 (GeneID 42663),DRSC16653,too many neurite branches,
CG13739 (GeneID 35957),DRSC06410,axon bundles split apart,
CG32986 (GeneID 34208),DRSC02509,reduced axon outgrowth,
swm (GeneID 35235),DRSC02012,too many neurite branches,
swm (GeneID 35235),DRSC21831,axon bundles split apart,too many neurite branches
Idh3g (GeneID 43102),DRSC15699,too many neurite branches,
nvy (GeneID 37886),DRSC04705,axon bundles split apart,
smog (GeneID 33690),DRSC00334,abnormal cell clusters,
Mkk4 (GeneID 41020),DRSC16739,sheet-like cell extensions,
Cyp313a3 (GeneID 41488),DRSC16626,too many neurite branches,
Lsm10 (GeneID 36141),DRSC06250,too many neurite branches,
CG11350 (GeneID 38554),DRSC08181,reduced axon outgrowth,abnormal cell clusters
CG15657 (GeneID 37408),DRSC04248,axon bundles split apart,
CG1545 (GeneID 32036),DRSC21532,fewer cells,
Hr38 (GeneID 35332),DRSC03345,abnormal cell clusters,
RpL14 (GeneID 38983),DRSC11269,beaded; swollen axons,
cid (GeneID 36495),DRSC07592,too many neurite branches,
CG33655 (GeneID 8674081),DRSC03858,abnormal cell clusters,
CG32694 (GeneID 31933),DRSC17855,axon bundles split apart,
be (GeneID 32430),DRSC19945,too many neurite branches,
dyl (GeneID 38531),DRSC08467,axon bundles split apart,
CG30338 (GeneID 246548),DRSC05166,abnormal cell clusters,
mgl (GeneID 8674055),DRSC17859,too many neurite branches,
Rpn2 (GeneID 43449),DRSC16839,sheet-like cell extensions,
dpr11 (GeneID 40800),DRSC12563,too many neurite branches,
nau (GeneID 42799),DRSC17011,reduced axon outgrowth,
CG42594 (GeneID 8674091),DRSC18053,too many neurite branches,
CG3847 (GeneID 31577),DRSC18327,abnormal cell clusters,
CG33262 (GeneID 2768975),DRSC22893,axon bundles split apart,
Eip63F-1 (GeneID 47878),DRSC08659,too many neurite branches,
L (retired record) (GeneID 44831),DRSC05966,too many neurite branches,
Klp64D (GeneID 38611),DRSC11204,axon bundles split apart,
RpS6 (GeneID 31700),DRSC18712,sheet-like cell extensions,
CG6709 + Hez,DRSC10698,cell fragments present,
CG3600 (retired record) (GeneID 31161),DRSC18599,too many neurite branches,
Cyp313a5 (GeneID 41486),DRSC16628,beaded; swollen axons,
Lint-O (GeneID 31254),DRSC18468,too many neurite branches,
ETHR (GeneID 42523),DRSC15915,axon bundles split apart,
Srpk79D (GeneID 40461),DRSC11856,reduced axon outgrowth,
Cpr78Cc (GeneID 40355),DRSC11846,sheet-like cell extensions,
Grl36b (GeneID 318940),DRSC01627,beaded; swollen axons,
RpS2 (GeneID 34309),DRSC03614,too many neurite branches,
CG13010 (GeneID 32643),DRSC19529,too many neurite branches,
psq (GeneID 36118),DRSC07668,sheet-like cell extensions,
CG2747 (GeneID 40950),DRSC15450,axon bundles split apart,
CG6900 (retired record) (GeneID 32868),DRSC20018,axon bundles split apart,
CG18540 (GeneID 37097),DRSC06767,axon bundles split apart,
CG8249 (GeneID 36742),DRSC07125,axon bundles split apart,
CG32119 (GeneID 317866),DRSC21462,axon bundles split apart,
